Test results published in PMC7862700.
Only a part is listed here, and it is no random draw. At the low end of the ranking the order means little.

Chains of the proteins cited; added tags and fusions are not shown. Lines headed by an entry give the natural chain unless they say otherwise; changes in a name come on top.
UniProt O43186: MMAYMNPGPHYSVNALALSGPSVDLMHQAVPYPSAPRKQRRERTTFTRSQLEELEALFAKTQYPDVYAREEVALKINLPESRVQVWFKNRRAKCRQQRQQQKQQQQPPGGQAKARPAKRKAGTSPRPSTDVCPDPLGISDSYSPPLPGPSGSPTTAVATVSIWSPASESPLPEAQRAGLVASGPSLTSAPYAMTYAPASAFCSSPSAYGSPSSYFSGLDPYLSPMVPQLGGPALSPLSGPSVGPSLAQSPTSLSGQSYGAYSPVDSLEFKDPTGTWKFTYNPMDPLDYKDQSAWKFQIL

Target: T1, FEV (UniProt Q99581)
T1 sequence: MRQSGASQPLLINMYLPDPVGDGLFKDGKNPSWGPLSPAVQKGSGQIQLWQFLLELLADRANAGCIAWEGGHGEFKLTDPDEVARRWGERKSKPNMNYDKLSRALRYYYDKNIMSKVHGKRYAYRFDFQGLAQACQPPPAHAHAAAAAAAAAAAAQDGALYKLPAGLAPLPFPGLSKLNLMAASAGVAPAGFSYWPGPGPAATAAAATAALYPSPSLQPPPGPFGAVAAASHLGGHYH
Assay: DAPPL (digital affinity profiling via proximity ligation, sequencing)
Conditions: 10 mM Tris-HCl pH 7.5, 50 mM NaCl, 1 mM DTT, 4% glycerol, room temperature, 30 min; GST-TFs on glutathione beads, 16-mer random dsDNA library, 0.1% …; high values mean tight binding; double strand, one strand shown; scale: fold enrichment (6-mer frequency, TF over GST control)

Sequence	binding signal
GCGAGG	0.575
GAAGGC	0.84
GTGTCA	0.766
TGAAGT	0.685
GACGCA	0.506
GCAGTC	0.435
AGTCCA	0.704
GCGGCG	0.697
GTAGGT	0.769
ATCGGA	0.477
AGACGG	0.345
GCGGTT	0.732
GCGTGT	0.529
AACCAG	0.823
GTCGTA	0.588
CGGAGA	0.187
GGACAC	0.812
CAACGG	0.95
GGAGGA	0.26

Sequence	binding signal
ATCGGT	0.658
GGGCAA	0.852
CACCAG	0.731
GCATAG	0.803
GAGAGA	0.404
CAGAGA	0.63
AGCAAG	0.88
TAGAGG	0.8
GAGGAT	0.554
CGTGGA	0.537
GCGGGG	0.45
TACGTG	0.656
CTGTCG	0.552
GGGCTG	0.938
GCTGGA	0.842
AGTTCA	0.869
GCATAT	0.942
CCATGT	0.81
GGCAGG	0.628

Target: CRX (UniProt O43186)
Assay: as above
Conditions: 10 mM Tris-HCl pH 7.5, 50 mM NaCl, 1 mM DTT, 4% glycerol, room temperature, 30 min; GST-TFs on glutathione beads, 16-mer random dsDNA library, 0.1% …; high values mean tight binding; double strand, one strand shown; scale: fold enrichment (6-mer frequency, TF over GST control)

Sequence	binding signal
GCGAGG	0.522
GAAGGC	0.701
GTGTCA	0.574
TGAAGT	0.66
GACGCA	0.41
GCAGTC	0.338
AGTCCA	0.569
GCGGCG	0.567
GTAGGT	0.628
ATCGGA	0.551
AGACGG	0.323
GCGGTT	0.689
GCGTGT	0.43
AACCAG	0.71
GTCGTA	0.497
CGGAGA	0.194
GGACAC	0.465
CAACGG	0.821
GGAGGA	0.22

Sequence	binding signal
ATCGGT	0.735
GGGCAA	0.674
CACCAG	0.634
GCATAG	0.731
GAGAGA	0.422
CAGAGA	0.683
AGCAAG	0.803
TAGAGG	1.02
GAGGAT	0.957
CGTGGA	0.562
GCGGGG	0.395
TACGTG	0.646
CTGTCG	0.433
GGGCTG	0.708
GCTGGA	0.884
AGTTCA	0.76
GCATAT	0.768
CCATGT	0.642
GGCAGG	0.435

Target: T2, ELF5 (UniProt Q9UKW6-2)
T2 sequence: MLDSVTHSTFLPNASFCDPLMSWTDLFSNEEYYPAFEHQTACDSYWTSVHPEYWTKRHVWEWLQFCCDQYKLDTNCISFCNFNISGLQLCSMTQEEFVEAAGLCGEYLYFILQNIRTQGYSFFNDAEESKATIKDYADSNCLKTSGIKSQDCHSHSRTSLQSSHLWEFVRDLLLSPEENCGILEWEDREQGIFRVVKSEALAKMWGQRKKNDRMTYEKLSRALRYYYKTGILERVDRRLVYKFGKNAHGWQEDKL
Assay: as above
Conditions: 10 mM Tris-HCl pH 7.5, 50 mM NaCl, 1 mM DTT, 4% glycerol, room temperature, 30 min; GST-TFs on glutathione beads, 16-mer random dsDNA library, 0.1% …; high values mean tight binding; double strand, one strand shown; scale: fold enrichment (6-mer frequency, TF over GST control)

Sequence	binding signal
GCGAGG	0.63
GAAGGC	0.908
GTGTCA	0.759
TGAAGT	0.704
GACGCA	0.554
GCAGTC	0.452
AGTCCA	0.704
GCGGCG	0.696
GTAGGT	0.805
ATCGGA	0.384
AGACGG	0.384
GCGGTT	0.723
GCGTGT	0.588
AACCAG	0.856
GTCGTA	0.635
CGGAGA	0.193
GGACAC	0.766
CAACGG	0.914
GGAGGA	0.291

Sequence	binding signal
ATCGGT	0.677
GGGCAA	0.815
CACCAG	0.705
GCATAG	0.788
GAGAGA	0.396
CAGAGA	0.562
AGCAAG	0.861
TAGAGG	0.822
GAGGAT	0.622
CGTGGA	0.554
GCGGGG	0.427
TACGTG	0.69
CTGTCG	0.548
GGGCTG	0.861
GCTGGA	0.781
AGTTCA	0.925
GCATAT	0.905
CCATGT	0.727
GGCAGG	0.558
